Assay results: publication PMC8748900
These are yes or no findings as the source states them, for the method shown. In cells and extracts the contact can be indirect. These calls come from enrichment with a bait or labelling near it, and not all partners need be listed. Where a sequence is shown, tags or fusion partners need not be part of it.

Target: T1, GFP-BASL (35S promoter-driven, in wild-type Arabidopsis) (Arabidopsis thaliana) (UniProt Q5BPF3)
T1 sequence: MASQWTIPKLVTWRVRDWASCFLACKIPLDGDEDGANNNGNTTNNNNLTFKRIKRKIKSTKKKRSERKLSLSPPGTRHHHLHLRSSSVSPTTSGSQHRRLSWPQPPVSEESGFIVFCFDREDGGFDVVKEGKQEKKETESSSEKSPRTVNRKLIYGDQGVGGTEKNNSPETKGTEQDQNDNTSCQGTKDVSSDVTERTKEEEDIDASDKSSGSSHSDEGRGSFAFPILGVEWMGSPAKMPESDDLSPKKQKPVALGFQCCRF
Assay: affinity purification with mass spectrometry; GFP-BASL from 3-day-old 35S::GFP-BASL seedlings isolated with GFP-Trap agarose, 3 h at 4 °C; LC-MS/MS; control BASL::GFP

binding | Substance
binds | PRAF8 (endogenous, Arabidopsis seedlings)
binds | PRAF9 (endogenous, Arabidopsis seedlings)
